PubChem BioAssay AID1259425, University of Nebraska Medical Center – 2018
The deposit covers about 14,000 reagents; shown is a part drawn at random. The record does not give: the time to read-out.

Purpose: 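Seek colon cancer weak points whose silencing resembles KSR1 loss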 (primary screen)
Cell system: HCT116 human colon cancer cells
Reagents: siRNA pool against human genes, 50 nM siRNA
Measurement: 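mRNA of six signature genes measured together by branched-DNA assay after 50 nM siRNA pool, blank removed, divided by geometric mean of two housekeeping genes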
Scale: BNIP3L mRNA: higher = more BNIP3L transcript after knockdown; NDRG1 mRNA: higher = more NDRG1 transcript after knockdown; BNIP3 mRNA: higher = more BNIP3 transcript after knockdown; ALDOC mRNA: higher = more ALDOC transcript after knockdown; ACSL5 mRNA: higher = more ACSL5 transcript after knockdown

target gene	BNIP3L mRNA, set 1	NDRG1 mRNA, set 1	BNIP3 mRNA, set 1	ALDOC mRNA, set 1	ACSL5 mRNA, set 1
CRISPLD1 (cysteine rich secretory protein LCCL domain containing 1)	0.257	0.135	0.489	0.178	0.256
H1-4 (H1.4 linker histone, cluster member)	0.115	0.253	0.294	0.0255	0.0992
UBAC1 (UBA domain containing 1)	0.112	0.236	0.197	0.0446	0.265
PIP5K1A (phosphatidylinositol-4-phosphate 5-kinase type 1 alpha)	0.156	0.434	0.543	0.0345	0.572
GDF10 (growth differentiation factor 10)	0.0568	0.0879	0.196	0.0205	0.103
UQCR10 (ubiquinol-cytochrome c reductase, complex III subunit X)	0.192	0.18	0.236	0.0347	0.165
ACTN2 (actinin alpha 2)	0.121	0.14	0.283	0.0273	0.101
SLC25A16	0.0651	0.101	0.311	0.0354	0.284
PIK3C3 (phosphatidylinositol 3-kinase catalytic subunit type 3)	0.0839	0.129	0.23	0.0392	0.0931
ACSBG2 (acyl-CoA synthetase bubblegum family member 2)	0.07	0.573	0.296	0.0334	0.308
BPHL (biphenyl hydrolase like)	0.0293	0.151	0.207	0.0068	0.177
MARCKSL1 (MARCKS like 1)	0.175	0.178	0.444	0.035	0.137
CLU (clusterin)	0.0863	0.355	0.387	0.0147	0.252
PHB2 (prohibitin 2)	0.0842	0.523	0.254	0.0227	0.157
TBC1D7 (TBC1 domain family member 7)	0.123	0.141	0.459	0.0431	0.157
SPATA22 (spermatogenesis associated 22)	0.0701	0.242	0.209	0.0235	0.139
HADHB	0.129	0.264	0.215	0.021	0.305
ZRSR2	0.107	0.118	0.274	0.0429	0.0489
BLOC1S6 (biogenesis of lysosomal organelles complex 1 subunit 6)	0.102	0.777	0.56	0.0447	0.283
SLC35F5	0.155	0.34	0.709	0.0549	0.167

5 entries already listed, ordered by “ACSL5 mRNA, set 1”, highest first:
target gene	BNIP3L mRNA, set 1	NDRG1 mRNA, set 1	BNIP3 mRNA, set 1	ALDOC mRNA, set 1	ACSL5 mRNA, set 1
HADHB	0.129	0.264	0.215	0.021	0.305
PHB2 (prohibitin 2)	0.0842	0.523	0.254	0.0227	0.157
TBC1D7 (TBC1 domain family member 7)	0.123	0.141	0.459	0.0431	0.157
SPATA22 (spermatogenesis associated 22)	0.0701	0.242	0.209	0.0235	0.139
ZRSR2	0.107	0.118	0.274	0.0429	0.0489

Further results follow:
target gene	BNIP3L mRNA, set 1	NDRG1 mRNA, set 1	BNIP3 mRNA, set 1	ALDOC mRNA, set 1	ACSL5 mRNA, set 1
PDE2A (phosphodiesterase 2A)	0.0782	0.0863	0.255	0.033	0.109
SNX4 (sorting nexin 4)	0.107	1.06	0.374	0.0553	0.381
STARD3NL (STARD3 N-terminal like)	0.182	0.0961	0.369	0.0485	0.121
DNPH1 (2'-deoxynucleoside 5'-phosphate N-hydrolase 1)	0.105	0.336	0.494	0.044	0.249
PDE7B (phosphodiesterase 7B)	0.086	0.314	0.202	0.0147	0.137
PTGER3 (prostaglandin E receptor 3)	0.388	0.577	0.881	0.101	0.231
EPHA6 (EPH receptor A6)	0.0356	0.266	0.474	0.0107	0.435
NFATC4 (nuclear factor of activated T cells 4)	0.198	0.233	0.458	0.0231	0.153
DCAF5 (DDB1 and CUL4 associated factor 5)	0.13	0.141	0.241	0.0172	0.0898
NXPH3 (neurexophilin 3)	0.0766	0.52	0.384	0.0107	0.168
COXFA4L2 (cytochrome c oxidase hypoxia associated subunit FA4L2)	0.121	0.223	0.338	0.0341	0.083
FIZ1 (FLT3 interacting zinc finger 1)	0.263	0.792	0.197	0.042	0.107
FLVCR2 (FLVCR choline and putative heme transporter 2)	0.17	1.45	0.345	0.011	0.217
ECEL1 (endothelin converting enzyme like 1)	0.0419	0.338	0.382	0.0153	0.161
